The target of this test is T1, Get3 D57E-TEV-GFP (S. cerevisiae, UniProt Q12154 1-354, D57E).
T1 construct: Get3, cytosolic ATPase of the GET pathway, S. cerevisiae; ATPase-impaired client trap variant D57E; Captured on anti-GFP beads and eluted by TEV cleavage; the oligomeric state in the lysate was not measured; also called Get3 DE; Get3 D57E (DE); source: yeast (BY4741 background), ectopically expressed, in lysate made without detergent; not shown: TEV site-GFP, C-terminal, kept
T1 sequence (looked up): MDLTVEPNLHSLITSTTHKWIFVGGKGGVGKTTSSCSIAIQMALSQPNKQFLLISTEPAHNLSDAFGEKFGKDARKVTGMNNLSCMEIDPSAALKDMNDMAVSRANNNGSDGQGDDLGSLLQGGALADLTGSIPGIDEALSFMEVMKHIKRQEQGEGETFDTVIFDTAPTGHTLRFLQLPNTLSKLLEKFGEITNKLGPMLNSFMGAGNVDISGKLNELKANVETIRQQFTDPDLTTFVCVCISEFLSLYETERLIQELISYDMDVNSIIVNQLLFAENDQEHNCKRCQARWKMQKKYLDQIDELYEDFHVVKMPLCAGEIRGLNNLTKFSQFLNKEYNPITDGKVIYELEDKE
Put plainly: co-IP; lysates from Δget3 cells ectopically expressing Get3 DE-TEV-GFP and HA-tagged Erg1 full length, ΔC, Δα1 or Δα2; anti-GFP MicroBeads, no detergent, TEV elution; immunoblot, signal normalised to Get3 in the eluate and to the input. In general terms: In western blotting, separated proteins are transferred to a membrane and probed.

Results are given in words; binding and its absence hold for the method and conditions named. In cells and extracts the contact can be indirect. Tags and fused reporters may be left off the sequences shown.

“N-terminally HA-tagged Erg1 lacking the C-terminal membrane interacting region (ΔC) (S. cerevisiae) (domain or fragment)”: the binding result is “no binding”.
